Assay results taken from PubChem BioAssay AID493014 (National Center for Advancing Translational Sciences (NCATS), 2011).
In all, about 340,000 compounds went through this assay and about 170 (0.05%) were called active. The inconclusive results got no clear call from the source; some entries with a clear call stand among them for comparison. The call rests on the fitted dose curve; in most records, active means well fitted inhibition curve with a large enough effect in the signal ratio, with a control signal flat (not every such curve was filed as active); inconclusive means small, poorly fitted or top-dose-only effect, or effect the other way, or a change in a side signal; inactive means flat fitted curve, though single readings scatter; the % refers to the signal ratio. Potencies beside an inconclusive call are fits to weak or partial responses and may not hold up.

experiment: qHTS Assay to Find Inhibitors of Chronic Active B-Cell Receptor Signaling; settings: ABC-DLBCL IkBa-CBG/CBR reporter, luminescence ratio (green luciferase fused to IkBa over red control in TMD8 lymphoma cells), 4 h; activity change, negative = inhibition: at 46.1 µM (top of the series);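 on activity change, negative = inhibition: plate controls were basal doxycycline-induced cells for no effect and cells given 10 µM MG132 for full effect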
In short: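 TMD8 ABC-DLBCL cells carrying doxycycline-inducible green luciferase fused to IkappaBalpha plus unfused red luciferase were exposed to compounds (up to 46 uM) for 4 hrs at 37C. Activity came from the overlap-corrected green/red luminescence ratio.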
Potency means the concentration at half of the fitted maximal effect.

Row | Structure (SMILES) | Potency | activity change, negative = inhibition
1 | CCCOc1ccc(CSC2=NCCN2)cc1[N+](=O)[O-] | inconclusive: 35.5 µM [falling, single point] | 
2 | O=C(Nc1ccccc1)Nc1ccc(Br)cc1F | inconclusive: 18.4 µM [falling, single point] | 
3 | O=C(CSc1nc2ccccc2nc1N1CCCC1)Nc1ccc(Cl)cc1 | inconclusive: 7.08 µM [falling, partial curve, poor fit] | 
4 | c1ccc(C2=NN(c3ccccc3)CC2)cc1 |  | inconclusive: 1.74%
5 | COCCNC(=O)CSc1nnc2[nH]c(=O)cc(C)n12 |  | inactive: 9.01%
6 | Cc1ccc2c(c1)C(=O)N1[C@H]3c4cc(C)ccc4OC[C@@H]3[C@H](c3ccccc3)[C@]1(C)C(=O)N2 |  | inconclusive: -1.87%
7 | O=c1[nH]c(Cc2ccc(Cl)cc2)nc2ccccc12 |  | inconclusive: 10.9%
8 | Cc1csc(N(C(=O)c2cccc(S(=O)(=O)N3CCCC3)c2)c2ccccc2)n1 | inconclusive: 20.6 µM [falling, single point] | 
9 | O=C(Cc1ccccc1)N1CCN=C1SCc1ccc([N+](=O)[O-])cc1 |  | inconclusive: -24.1%
10 | Clc1cccc(Cl)c1COc1ccccc1CNn1cnnc1 | inconclusive: 4.47 µM [falling, full curve, poor fit] | 
11 | O=C(NN=C1CCCC1)c1ccc([N+](=O)[O-])cc1 | inconclusive: 6.31 µM [falling, single point] | 
12 | CCCCCn1c(=S)[nH]c2ncccc2c1=O |  | inactive: -2.07%
13 | CC(C)Sc1nc2sccc2c(=O)n1-c1ccccc1 | inconclusive: 10 µM [rising, partial curve, poor fit] | 
14 | N#Cc1nc(COc2ccccc2F)oc1NCCCn1ccnc1 |  | inactive: -11.7%
15 | O=C(Nc1ccc(Cl)cc1)OCc1cn(-c2ccc(Cl)cc2)nn1 |  | inconclusive: 14.4%
16 | CC(C)c1cc(C(N)=O)c(NC(=O)c2cccc(COc3ccc(Cl)cc3)c2)s1 | inconclusive: 16.4 µM [falling, single point] | 
17 | CCOC(=O)c1csc(NC(=O)c2cc(-c3ccccn3)nc3ccccc23)n1 |  | inconclusive: 2.76%
18 | CCCCCCOc1ccc(N2C(=O)CC(NCc3ccc(S(N)(=O)=O)cc3)C2=O)cc1 (stereo unspecified) |  | inconclusive: -18.8%
19 | Cc1ccc(C)c(N(C(=O)Cn2nnc3ccccc32)C(C(=O)NCc2ccco2)c2ccncc2)c1 (stereo unspecified) |  | inconclusive: -10.5%
20 | CC(=O)Oc1cccc(N2C(=O)CC(Nc3ccc(N4CCOCC4)cc3)C2=O)c1 (stereo unspecified) |  | inconclusive: -7.21%
21 | N#Cc1cccc(S(=O)(=O)N2CCN(c3ccnc4cc(Cl)ccc34)CC2)c1 |  | inconclusive: -3.88%

Quoted at random: 2 compounds from above, in no set order.
Row | Structure (SMILES) | Potency | activity change, negative = inhibition
16 | CC(C)c1cc(C(N)=O)c(NC(=O)c2cccc(COc3ccc(Cl)cc3)c2)s1 | inconclusive: 16.4 µM [falling, single point] | 
5 | COCCNC(=O)CSc1nnc2[nH]c(=O)cc(C)n12 |  | inactive: 9.01%

(further entries)

Row | Structure (SMILES) | Potency | activity change, negative = inhibition
22 | Cc1ccccc1Cn1c(C(=O)OC(C)C)cc2c1ccn2C | inconclusive: 35.5 µM [rising, partial curve, poor fit] | 
23 | O=C(NCCN1CCOCC1)c1cc2sccc2n1Cc1ccc(Cl)cc1 |  | inconclusive: 0.0606%
24 | C#CCNC(=O)c1cc2sccc2n1C | inconclusive: 11.2 µM [falling, partial curve, poor fit] | 
25 | O=C(/C=C\c1ccccc1)NCC(=O)N/N=C/c1ccc(O)cc1O |  | inconclusive: 1.25%
26 | COc1ccccc1CNC(=O)CSc1ccsc1[N+](=O)[O-] |  | inactive: 11.4%
27 | Cc1cccc(NC(=S)N/N=C/c2cccc(O)c2)c1C | inconclusive: 11.2 µM [falling, partial curve] | 
28 | Cc1ccc2cc(-c3noc(C(C)(C)C)n3)c(=O)[nH]c2c1 |  | inconclusive: 5.9%
29 | Cc1cccc(C(=O)N2CCCC(N3CCN(c4ccc(F)cc4)CC3)C2)n1 (stereo unspecified) |  | inactive: -0.383%
30 | O=C(CC1N=C2c3ccccc3N=C(SCC(=O)Nc3ccc(F)cc3)N2C1=O)NCc1ccc2c(c1)OCO2 (stereo unspecified) |  | inconclusive: 1.39%
31 | O=C(CN1CCN(c2cccc(Cl)c2)CC1)NC1CCCc2ccccc21 (stereo unspecified) |  | inconclusive: -21.2%
32 | O=C(COc1ccc2c(-c3ccccc3)cc(=O)oc2c1)N[C@H](Cc1c[nH]c2ccccc12)C(=O)O | inconclusive: 3.16 µM [falling, partial curve, poor fit] | 
33 | Cc1ccc(S(=O)(=O)CC(=O)c2ccccc2)cc1 |  | inconclusive: 9.57%
34 | N/C(Cc1ccc(Cl)cc1Cl)=N\OC(=O)Cc1cccs1 |  | inconclusive: 2.69%
35 | CN(Cc1ccccc1)c1nc2c(c(=O)[nH]c(=O)n2C)n1Cc1ccccc1Cl |  | inconclusive: -1.53%
36 | O=C1N=c2ccccc2=C1c1sc(=S)n(NC(=O)c2cccc(O)c2)c1O |  | inconclusive: -3.06%
37 | COc1ccc(OC)c(NC(=O)C2CC(=O)N(CCc3ccccc3)C2)c1 (stereo unspecified) |  | inactive: 4.46%
38 | Cc1ccc(NC(=O)COC(=O)c2ccc(NC(=O)CC#N)cc2)cc1S(=O)(=O)N1CCOCC1 | inconclusive: 29.1 µM [falling, single point] | 
39 | Cc1cc(Nc2ccccc2)nc2cc(O)ccc12 |  | inconclusive: -16%
40 | CC(C)N(NC(=O)c1cccc2ccccc12)C(C)C | inconclusive: 11.2 µM [rising, single point] | 
41 | CCOc1ccc(NC(=O)CN(C)S(=O)(=O)c2cccs2)cc1 |  | inconclusive: 27.2%
42 | O=C(N/N=C/c1cccs1)c1ccc2nc[nH]c2c1 |  | inconclusive: -22.5%

Record cards, from the list above:
`Cc1ccccc1Cn1c(C(=O)OC(C)C)cc2c1ccn2C` as listed: Potency: inconclusive: 35.5 µM [rising, partial curve, poor fit]
`Cc1ccc(S(=O)(=O)CC(=O)c2ccccc2)cc1` as listed: activity change, negative = inhibition: inconclusive: 9.57%
`CN(Cc1ccccc1)c1nc2c(c(=O)[nH]c(=O)n2C)n1Cc1ccccc1Cl` as listed: activity change, negative = inhibition: inconclusive: -1.53%

Following part.

Row | Structure (SMILES) | Potency | activity change, negative = inhibition
43 | Cc1c(C(=O)N(C)C)sc2c1c(=O)n(-c1ccc(Cl)c(Cl)c1)c(=O)n2CC(=O)Nc1ccc(Br)cc1F |  | inactive: -9.67%
44 | COC(=O)CCSc1cc(NCCOC(C)=O)c([N+](=O)[O-])c2nonc12 | inconclusive: 29.1 µM [falling, single point] | 
45 | Oc1ccc(-c2c(-c3ccsc3)sc3ccccc23)cc1 | inconclusive: 35.5 µM [rising, single point] | 
46 | O=C(COc1ccccc1)N1N=C(c2cccnc2)CC1(O)C(F)(F)F (stereo unspecified) |  | inconclusive: 1.45%
47 | CCn1c(C(=O)O)c(S(=O)(=O)c2ccc(Cl)cc2)c2ccccc21 |  | inconclusive: 4.63%
48 | COc1cccc(CNC(=O)CSc2ccc(-c3ccco3)nn2)c1 |  | inactive: 15.6%
49 | Cc1onc(-c2c(F)cccc2Cl)c1C(=O)N[C@@H]1C(=O)N2C(C(=O)O)C(C)(C)S[C@H]12 (stereo partly specified) |  | inactive: -3.86%
50 | CC1CN(C(=O)CCC(=O)NC(C)c2ccccc2)c2cc(Cl)ccc2O1 (stereo unspecified) |  | inconclusive: 17.2%
51 | CCOC(=O)C1(C)NC(c2cccs2)C2C(=O)N(c3ccc(OC)cc3)C(=O)C21 (stereo unspecified) |  | inactive: 5.3%
52 | COc1cccc(-n2nnnc2SCC(=O)Nc2ccc(C(C)=O)cc2)c1 |  | inconclusive: 13.3%
53 | CNCC[C@H](Oc1cccc2ccccc12)c1cccs1 |  | inconclusive: -17.1%
54 | CC1CCCN(c2ncnc3c2cnn3-c2ccccc2)C1 (stereo unspecified) |  | inconclusive: -4.5%
55 | N#Cc1cccc(NC(=O)CN2CCCCCC2)c1 |  | inconclusive: -1.83%
56 | OCCC1CN(CC2CCCCC2)CCN1CC1CCCCC1 (stereo unspecified) |  | inactive: -1.08%
57 | Cc1ccc(-c2cn(-c3ccccc3)c(=S)[nH]2)cc1C | inconclusive: 31.6 µM [falling, single point] | 
58 | COc1ccc(CCn2c(-c3ccc(C(C)(C)C)cc3)n[nH]c2=S)cc1OC |  | inactive: 0.738%
59 | CCn1c(=O)n(CCOC)c(=O)c2c3c(sc21)CCCC3 |  | inconclusive: 17.2%
60 | COc1ccc2[nH]c(=O)c(CN(Cc3cccnc3)C(=O)Nc3ccccc3)cc2c1 |  | inconclusive: 1.11%
61 | COc1ccc(CCNC(=O)C2c3ccccc3C(=O)N2CCC(C)C)cc1OC (stereo unspecified) |  | inconclusive: -4.43%
62 | O=C(CN1CCC(C(O)(c2ccccc2)c2ccccc2)CC1)Nc1ccccc1 |  | inconclusive: -0.417%
63 | C=CCN(CC=C)C(=O)c1ccc(OC2CCN(S(=O)(=O)N(C)C)CC2)cc1 |  | inconclusive: 1.49%

Row | Structure (SMILES) | Potency | activity change, negative = inhibition
64 | COC(=O)[C@H](Cc1ccccc1)NC(=O)Nc1ccc(C)cc1 |  | inconclusive: 14.2%
65 | CC1(C)CC(=O)C(C=Nc2ccccc2)=C(O)C1 | inconclusive: 35.5 µM [falling, single point] | 
66 | CCOc1cc(C2NN=C(c3ccccc3)S2)ccc1OCc1ccc(F)cc1 (stereo unspecified) | inconclusive: 2.91 µM [rising, partial curve, poor fit] | 
67 | C/C=C/c1ccc(OCC(O)CN(C)Cc2ccc(SC)cc2)c(OC)c1 (stereo unspecified) |  | inactive: 1.23%
68 | C=CCc1cc(/C=C2/NC(=O)N(CC)C2=O)cc(OCC)c1OCc1ccc(C(=O)O)cc1 |  | inconclusive: 16.9%
69 | COc1ccc(-c2cc(C3CCN(C(=O)OC(C)(C)C)CC3)[nH]n2)cc1 |  | inconclusive: -26.2%
70 | COCc1cc(C)nc2sc(C(=O)N3CCCCC3)c(N)c12 |  | inactive: 4.38%
71 | O=C(Nc1nnc(SCc2ccccc2Cl)s1)c1cccc([N+](=O)[O-])c1 |  | inconclusive: -6.15%
72 | Cc1c2c(nc3ccccc13)CC(C)(C)CC2=O |  | inconclusive: 9.67%
73 | COc1ccc(C2(C(=O)NC(C)C)CCCC2)cc1OC |  | inconclusive: 1.29%
74 | CCCCC(C(=O)OCC)C(N)Cc1ccc(F)cc1 (stereo unspecified) |  | inactive: -7.52%
75 | CC(=O)N1CCC(C(=O)NC2CCCc3c2cnn3-c2cc(F)cc(F)c2)CC1 (stereo unspecified) |  | inactive: 4.97%
76 | COc1ccc(Cl)cc1NC(=O)CN(C)Cc1cccs1 |  | inconclusive: 28.1%
77 | C=CCN1C(=O)C2(OCCCO2)c2cc(CCCC)ccc21 |  | inconclusive: 1.16%
78 | CC(C)CNC(=S)NNC(=O)c1ccccc1OC(F)F | inconclusive: 29.1 µM [falling, single point] | 
79 | Cc1ccc(O)c(NC(=O)c2cc(-c3cccs3)on2)c1 | inconclusive: 31.6 µM [rising, partial curve] | 
80 | NC(=O)c1ccc(Oc2ccc3c(c2)CCC3)c([N+](=O)[O-])c1 | inconclusive: 22.4 µM [falling, partial curve, poor fit] | 
81 | CC(C)N(C(C)C)S(=O)(=O)c1ccc(N2CCc3ccccc3C2)nc1 | inconclusive: 15.8 µM [falling, partial curve, poor fit] | 
